Article PMC4310589
These are yes or no findings as the source states them, for the method shown. For part of these data: In cells and extracts the contact can be indirect. Some results given as binding are weak or reduced against the parent protein; the word gives no strength. Values belong to the substance of their own block, whether it stands above or below them.

Sequences of proteins named here, by UniProt entry; tags and fusion partners are left off. Residues count along the entry.
UniProt P54252: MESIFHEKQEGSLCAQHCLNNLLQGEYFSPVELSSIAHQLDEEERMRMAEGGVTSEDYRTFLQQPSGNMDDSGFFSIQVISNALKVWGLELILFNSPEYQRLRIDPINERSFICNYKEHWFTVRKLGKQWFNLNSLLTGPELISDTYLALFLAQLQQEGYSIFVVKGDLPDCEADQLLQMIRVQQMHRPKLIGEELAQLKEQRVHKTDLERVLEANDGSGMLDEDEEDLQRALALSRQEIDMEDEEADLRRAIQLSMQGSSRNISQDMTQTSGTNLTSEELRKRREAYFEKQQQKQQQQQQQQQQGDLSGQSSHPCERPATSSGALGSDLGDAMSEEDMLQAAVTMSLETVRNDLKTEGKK
UniProt P02769, residues 25-607: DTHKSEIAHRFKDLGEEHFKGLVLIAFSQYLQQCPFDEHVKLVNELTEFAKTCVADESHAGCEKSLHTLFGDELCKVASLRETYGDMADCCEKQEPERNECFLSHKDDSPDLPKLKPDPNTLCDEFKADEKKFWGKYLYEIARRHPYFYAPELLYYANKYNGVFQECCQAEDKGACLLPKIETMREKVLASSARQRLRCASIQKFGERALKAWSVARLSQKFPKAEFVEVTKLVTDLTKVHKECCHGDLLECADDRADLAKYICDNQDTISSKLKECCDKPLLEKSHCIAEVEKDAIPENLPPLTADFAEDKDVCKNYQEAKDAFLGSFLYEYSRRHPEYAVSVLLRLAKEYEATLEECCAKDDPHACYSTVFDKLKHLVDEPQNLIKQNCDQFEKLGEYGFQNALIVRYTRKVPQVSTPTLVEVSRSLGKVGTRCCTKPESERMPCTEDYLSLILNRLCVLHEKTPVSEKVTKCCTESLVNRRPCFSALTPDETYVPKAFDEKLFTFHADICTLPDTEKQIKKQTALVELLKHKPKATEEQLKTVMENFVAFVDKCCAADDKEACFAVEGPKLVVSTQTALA

Legend:
[1] = target: polynucleotide kinase 3'-phosphatase (PNKP), endogenous (human (endogenous in AGS, HEK-293, SH-SY5Y)) (UniProt Q96T60); test: co-IP; nuclear extracts (1 mg, benzonase treated) of HEK-293 and SH-SY5Y cells IP'd with anti-PNKP or anti-ATXN3 Ab, IgG as control; Western blot; HEK-293 cells treated with control, PNKP or ATXN3 siRNA
[2] = target: Ataxin-3 (ATXN3), endogenous (human (endogenous in AGS, HEK-293, SH-SY5Y)) (UniProt P54252); test: as above
[3] = target: bovine serum albumin (bovine) (UniProt P02769); test: far-Western, overlay or dot blot; far-Western: WT ATXN3 (ln 1), mutant ATXN3 (ln 2) and BSA (ln 3) on the gel, interaction with full-length PNKP; both purified

binding [1]: binds
Substance: Ataxin-3 (ATXN3), endogenous (from UniProt P54252 1-361)

Substance: polynucleotide kinase 3'-phosphatase (PNKP), endogenous (from UniProt Q96T60 1-521) (enzyme)
binding [2]: binds

binding [3]: no binding
Substance: purified recombinant full-length PNKP (from UniProt Q96T60 1-521) (enzyme)
